Assay results as given in PubChem BioAssay AID540303 (National Center for Advancing Translational Sciences (NCATS), 2011).
Screen size: about 330,000 compounds; about 1,000 (0.3%) were called active. Inconclusive means that the source gave no clear call. Such entries were picked first, then a sample of the others. Calls follow the shape of the dose curve; as a rule, active = well fitted inhibition curve with a large enough effect; inconclusive = small, poorly fitted or top-dose-only effect; inactive = no such curve, though single readings can be large or run the other way; tested in mouse RAW 264.7 cells. Potencies of inconclusive entries are doubtful fits and often do not repeat.
% is scaled to controls: 0 for no effect and ±100 for the full control effect; potency is read from the fitted curve at half-maximal effect.

Assay: qHTS for Inhibitors of Cell Surface uPA Generation; also: nearly all actives have a fitted effect of over 55% in size
Settings: cell surface uPA generation assay; series mostly up to 38.3 µM; activity change, negative = inhibition: at the top concentration
Outline: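 RAW 264.7 cells (4000/well) were plated overnight at 37 C and then given compounds in a 1:5 series (up to 38.3 uM final) plus reagent for 24 h. Intracellular ATP was measured by ATP-Lite luminescence and stays elevated when uPA-dependent LF entry is blocked.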
For `CC[C@]12c3[nH]c4cc(-c5ccco5)ccc4c3CCN1C(=O)[C@@H](CC(=O)NCc1cccc(C(F)(F)F)c1)C[C@@H]2C(=O)N1CCN(C(=O)C2CC2)CC1`, the Potency was inconclusive: 28.2 µM [inhibitor, single point].
With `COc1ccc(OC)c(N2C(=O)NC(=O)C(CCc3ccncc3)(CCc3ccncc3)C2=O)c1` the “activity change, negative = inhibition” value was inactive: -0.337%.
In the case of `CNCC[C@H](Oc1cccc2ccccc12)c1cccs1`, the Potency is reported as inconclusive: 10 µM [inhibitor, single point].
For `CC[C@H](C)[C@@H](C(=O)N1CCCC1c1nccs1)N(C)C(=O)[C@H](CC(C)C)N(C)C(=O)[C@H](Cc1ccc(OC)cc1)N(C)C(=O)/C=C(\C)OC` (stereo partly specified), the Potency was inconclusive: 12.6 µM [inhibitor, single point].
In the case of `COc1cc2c(cc1O)CC1c3c(cc(O)c(OC)c3-2)CCN1C` (stereo unspecified), the “activity change, negative = inhibition” value is reported as inactive: 15.8%.
For `COc1ccc(CN2Cc3cnnn3-c3ccccc3C2C#N)cc1` (stereo unspecified), the Potency was active: 5.62 µM.
With `O=C(CN1CCN(S(=O)(=O)c2ccc(Cl)s2)CC1)N1CCCCC1` the Potency was inconclusive: 11.2 µM [inhibitor, partial curve, poor fit].
In the case of `C#CCOCCOCCOCCNc1nc(N2CCN(C(=O)CCCCCCCCCCNC(=O)[C@H](CCCCN)n3cc(C[C@@H](C)CC)nn3)CC2)nc(N2CCN(C(=O)CCCCCCCCCCNC(=O)[C@H](CCCN=C(N)N)n3cc(C[C@@H](C)CC)nn3)CC2)n1`, the Potency is reported as inconclusive: 22.4 µM [inhibitor, single point].
For `CN(C)c1nc(C=C(C#N)C#N)c(Cl)n1-c1ccc(F)cc1`, the Potency was inconclusive: 10 µM [inhibitor, partial curve, poor fit].
With `O=C(O)CN1C(=O)CN=C(c2ccccn2)c2cc(Cl)ccc21` the “activity change, negative = inhibition” value was inactive: -22.3%.
With `CCOC(=O)C1(Cc2ccc(Cl)cc2)CCN(C(C)Cc2ccc(O)c(OC)c2)CC1` (stereo unspecified) the Potency was inconclusive: 7.08 µM [inhibitor, partial curve, poor fit].
In the case of `NC1CCc2cc(O)c(O)cc2C1` (stereo unspecified), the “activity change, negative = inhibition” value is reported as inactive: -0.939%.
For `O=c1cc(CNc2cc(C(F)(F)F)cc(C(F)(F)F)c2)nc2sccn12`, the Potency was inconclusive: 11.2 µM [inhibitor, partial curve, poor fit].
With `O=C(NCCc1c[nH]c2ccccc12)C(=O)NCC(c1cccnc1)N1CCN(c2ccccc2)CC1` (stereo unspecified) the Potency was inconclusive: 11.2 µM [inhibitor, single point].
In the case of `O=c1c(O)c(-c2ccc(O)c(O)c2)oc2cc(O)ccc12`, the Potency is reported as inconclusive: 10 µM [inhibitor, partial curve, poor fit].
With `Nc1n[nH]c(N)c1N=Nc1ccc2c(c1)OCO2` the Potency was inconclusive: 10 µM [inhibitor, single point].
For `CC(C)(C)c1ccc(OCCCC(=O)Nc2cccc(S(=O)(=O)N3CCOCC3)c2)cc1`, the Potency was inconclusive: 12.6 µM [inhibitor, single point].
In the case of `Clc1cccc(Cl)c1/C=C/c1ccn[nH]1`, the Potency is reported as inconclusive: 8.91 µM [inhibitor, single point].
In the case of `Cc1cccc(NC(=O)c2nc[nH]c2C(=O)NCCCCCNC(=O)OC(C)(C)C)c1`, the Potency is reported as inconclusive: 28.2 µM [inhibitor, single point].
In the case of `CCCCC[C@@H](/C=C/C1C(=O)C=C[C@H]1C/C=C\CCCC(=O)O)OC(C)=O` (stereo partly specified), the Potency is reported as inconclusive: 10 µM [inhibitor, partial curve, poor fit].
For `Cc1ccc(-c2cc(-c3ccccc3)cc(-c3ccccc3)[n+]2-c2ccccc2)cc1`, the Potency was active: 10 µM.
With `COC1=C(C)C(=O)O[C@]12C(=O)C(C)=C1CCCCN3[C@H]([C@@H]4C[C@H](C)C(=O)O4)CC[C@]132` the Potency was inconclusive: 10 µM [inhibitor, single point].
For `O=C1NCN(c2ccccc2)C12CCN(CCCC(c1ccc(F)cc1)c1ccc(F)cc1)CC2`, the Potency was inconclusive: 11.2 µM [inhibitor, partial curve, poor fit].
With `COC(=O)C1=C(c2ccc(F)cc2OCc2ccccc2)C[C@@H]2CC[C@H]1N2C(=O)NCCc1ccc(F)cc1` the Potency was inconclusive: 11.2 µM [inhibitor, single point].
With `COC(=O)C1=C(c2ccc(F)cc2OCc2ccccc2)C[C@@H]2CC[C@H]1N2C(=O)NCc1ccc(OC)cc1` the Potency was inconclusive: 12.6 µM [inhibitor, single point].
With `C#CCOCCOCCOCCNc1nc(N2CCN(C(=O)CCCCCCCCCCNC(=O)[C@@H](CCC(=O)O)n3cc(CCCCCN)nn3)CC2)nc(N2CCN(C(=O)CCCCCCCCCCNC(=O)[C@H](CCCCN)n3cc(C[C@@H](C)CC)nn3)CC2)n1` the Potency was inconclusive: 11.2 µM [inhibitor, single point].
For `COc1ccc(CC2NCC(O)C2OC(C)=O)cc1` (stereo unspecified), the Potency was inconclusive: 0.0005 µM [inhibitor, full curve, poor fit].
With `COc1ccc([C@@]2(C(C)C)ON(c3ccccc3C(F)(F)F)C2=O)cc1` the Potency was inconclusive: 7.94 µM [inhibitor, partial curve].
In the case of `O=C(O)c1cc[c]([Hg][Cl])cc1`, the Potency is reported as inconclusive: 7.94 µM [inhibitor, single point].
With `Cc1n[nH]c(C)c1CCCCOc1ccccc1[N+](=O)[O-]` the Potency was inconclusive: 11.2 µM [inhibitor, single point].
For `COc1cccc(OC)c1C1=NCC(=O)Nc2c1oc1ccc(Br)cc21`, the Potency was inconclusive: 0.316 µM [inhibitor, full curve, poor fit].
With `Cc1cc(C)c(NC(=O)C2CC3CCC2C3)c(C)c1` (stereo unspecified) the Potency was inconclusive: 7.94 µM [inhibitor, partial curve].
In the case of `COC(=O)C1=C(c2cccc3c2S(=O)(=O)c2ccccc2-3)C[C@@H]2CC[C@H]1N2C(=O)N1CCc2cc(OC)c(OC)cc2C1`, the Potency is reported as inconclusive: 8.91 µM [inhibitor, single point].
In the case of `CN(C)P(=O)(N(C)C)N1CC1`, the “activity change, negative = inhibition” value is reported as inactive: -2.81%.
With `COc1ccc(CN2Cc3cnnn3-c3ccccc3C2c2ccccc2)cc1` (stereo unspecified) the Potency was inconclusive: 28.2 µM [inhibitor, single point].
In the case of `COC(=O)C1=C(c2ccc(F)cc2OCc2ccccc2)C[C@@H]2CC[C@H]1N2C(=O)NCCOc1ccccc1`, the Potency is reported as inconclusive: 12.6 µM [inhibitor, single point].
For `Oc1cc(O)cc(/C=C/c2ccc(O)cc2O)c1`, the Potency was inconclusive: 11.2 µM [inhibitor, single point].
With `OCc1cc(C(O)CNCCCCCCOCCCCc2ccccc2)ccc1O` (stereo unspecified) the Potency was inconclusive: 7.94 µM [inhibitor, partial curve, poor fit].
With `C[C@@H]1O[C@@H](O[C@@H]2C=C3CC[C@@H]4C(CC[C@]5(C)[C@@H](c6ccc(=O)oc6)CC[C@]45O)[C@@]3(C)CC2)[C@H](O)[C@H](O)[C@H]1O` (stereo partly specified) the “activity change, negative = inhibition” value was inactive: -6.38%.
In the case of `C=CCn1c(=O)c(C=Nc2cccc([N+](=O)[O-])c2)c(O)n(CCCC)c1=O`, the “activity change, negative = inhibition” value is reported as inactive: -0.987%.
In the case of `COC(=O)C1=C(c2cccc(OCc3ccccc3)c2)C[C@@H]2CC[C@H]1N2C(=O)NCCOc1ccc(OC)cc1`, the Potency is reported as inconclusive: 8.91 µM [inhibitor, partial curve, poor fit].
For `CC(C)c1oc(=O)cc2c1[C@@H](O)[C@H]1OC(=O)[C@@]3(C)CC[C@@H](O)[C@@]2(C)C13` (stereo partly specified), the Potency was inconclusive: 7.08 µM [inhibitor, partial curve, poor fit].
For `Cc1ccc(S(=O)(=O)Nc2ccccc2N(C)S(=O)(=O)c2ccc(C)cc2)cc1`, the Potency was inconclusive: 31.6 µM [inhibitor, single point].
With `COC(=O)NC(=S)Nc1ccccc1NC(=S)NC(=O)OC` the Potency was inconclusive: 12.6 µM [inhibitor, partial curve, poor fit].
In the case of `CN(C)C(=O)O/N=C(\N)COc1ccc(C(C)(C)C)cc1`, the Potency is reported as inconclusive: 12.6 µM [inhibitor, single point].
In the case of `CC1CNCCN1S(=O)(=O)c1cccc2cnccc12` (stereo unspecified), the Potency is reported as inconclusive: 10 µM [inhibitor, partial curve, poor fit].
In the case of `Cc1cc(Br)ccc1S(=O)(=O)NCc1ccccc1`, the Potency is reported as inconclusive: 10 µM [inhibitor, partial curve, poor fit].
In the case of `CCOC(=O)[C@]12Cc3cc4c(cc3[C@H]1N(Cc1ccccc1)C(=O)c1ccccc12)OCO4`, the Potency is reported as active: 12.6 µM.
In the case of `Nc1nc(F)nc2c1ncn2[C@@H]1O[C@H](CO)[C@@H](O)[C@H]1O`, the Potency is reported as inconclusive: 0.0141 µM [inhibitor, full curve, poor fit].
With `Cn1c(=O)c2c(nc(-c3ccc(N(CCCl)CCCl)cc3)n2C)n(C)c1=O` the “activity change, negative = inhibition” value was inactive: -3.9%.
With `Cc1ccc(C(=O)Nc2ncc([N+](=O)[O-])s2)cc1` the Potency was inconclusive: 8.91 µM [inhibitor, partial curve, poor fit].
In the case of `COc1ccccc1Nc1nc(-c2sc(NC(=O)c3ccco3)nc2C)cs1`, the Potency is reported as inconclusive: 5.01 µM [inhibitor, partial curve, poor fit].
For `O=P(Oc1ccccc1)(Oc1ccccc1)C(O)c1ccccc1` (stereo unspecified), the “activity change, negative = inhibition” value was inactive: 11.1%.
For `COc1nc2ccccc2nc1N1CCN(C)CC1`, the Potency was inconclusive: 0.01 µM [inhibitor, full curve, poor fit].
For `CC(=O)O[C@H]1C(=O)[C@@]2(C)C([C@H](OC(=O)c3ccccc3)[C@]3(O)C[C@H](O)C(C)=C1C3(C)C)[C@]1(OC(C)=O)CO[C@@H]1C[C@H]2O` (stereo partly specified), the Potency was inconclusive: 28.2 µM [inhibitor, single point].
With `CC(C)(C)OC(=O)NCCCC[C@H](NC(=O)c1nc[nH]c1C(=O)NC1CCN(C(=O)OC(C)(C)C)CC1)C(=O)OC(C)(C)C` the Potency was inconclusive: 10 µM [inhibitor, single point].
